Results: PMC4942575

Protein sequences, listed by entry. Tags and fused reporters are not part of them. Lines headed by an entry give the natural chain unless they say otherwise; changes in a name come on top.
UniProt A0MES8: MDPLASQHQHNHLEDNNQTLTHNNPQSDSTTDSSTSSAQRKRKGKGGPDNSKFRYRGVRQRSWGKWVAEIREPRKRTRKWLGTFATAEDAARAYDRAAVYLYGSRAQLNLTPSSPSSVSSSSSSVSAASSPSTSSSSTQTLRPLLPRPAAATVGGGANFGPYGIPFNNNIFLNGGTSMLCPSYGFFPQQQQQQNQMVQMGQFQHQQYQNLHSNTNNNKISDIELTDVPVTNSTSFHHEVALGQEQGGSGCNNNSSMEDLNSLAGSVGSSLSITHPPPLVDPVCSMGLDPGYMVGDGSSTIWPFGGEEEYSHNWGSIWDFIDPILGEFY

Experiments:
[1] = target: MBP-ABI4 WT phosphorylated by MPK3/MPK6 (Arabidopsis thaliana) (UniProt A0MES8); test: EMSA; details: pre-incubated with activated MPK3+MPK6 and ATP, binding increased vs unphosphorylated; 10 ul: 2 ug protein, 200 fmol biotin probe, 1 ul poly(dI/dC), 1x LightShift binding buffer, 5% glycerol; room temperature 20 min; 6% native PAGE; pH and salt not given; recombinant protein; protein details: MBP (pETMALc-H); label: 3' biotin
MBP = test: EMSA; details: negative control; 10 ul: 2 ug protein, 200 fmol biotin probe, 1 ul poly(dI/dC), 1x LightShift binding buffer, 5% glycerol; room temperature 20 min; 6% native PAGE; pH and salt not given; recombinant protein; label: 3' biotin

## GACTAGAGACTGCCACATAAGAATAGTAAAGTTA (double strand) [LHCB promoter probe]
[1]
  binding result: binds
MBP
  binding result: no binding

Construct, isoform or probe ends are uncertain for at least one entry. For some assays here: A negative result means that nothing was seen under these conditions. For some assays here: At least one verdict rests on a figure or table, not on a statement of the authors.
